We go through one substance from publication PMC8918791.

By UniProt entry, the sequences of proteins in these tests, tags left out.
UniProt O88778: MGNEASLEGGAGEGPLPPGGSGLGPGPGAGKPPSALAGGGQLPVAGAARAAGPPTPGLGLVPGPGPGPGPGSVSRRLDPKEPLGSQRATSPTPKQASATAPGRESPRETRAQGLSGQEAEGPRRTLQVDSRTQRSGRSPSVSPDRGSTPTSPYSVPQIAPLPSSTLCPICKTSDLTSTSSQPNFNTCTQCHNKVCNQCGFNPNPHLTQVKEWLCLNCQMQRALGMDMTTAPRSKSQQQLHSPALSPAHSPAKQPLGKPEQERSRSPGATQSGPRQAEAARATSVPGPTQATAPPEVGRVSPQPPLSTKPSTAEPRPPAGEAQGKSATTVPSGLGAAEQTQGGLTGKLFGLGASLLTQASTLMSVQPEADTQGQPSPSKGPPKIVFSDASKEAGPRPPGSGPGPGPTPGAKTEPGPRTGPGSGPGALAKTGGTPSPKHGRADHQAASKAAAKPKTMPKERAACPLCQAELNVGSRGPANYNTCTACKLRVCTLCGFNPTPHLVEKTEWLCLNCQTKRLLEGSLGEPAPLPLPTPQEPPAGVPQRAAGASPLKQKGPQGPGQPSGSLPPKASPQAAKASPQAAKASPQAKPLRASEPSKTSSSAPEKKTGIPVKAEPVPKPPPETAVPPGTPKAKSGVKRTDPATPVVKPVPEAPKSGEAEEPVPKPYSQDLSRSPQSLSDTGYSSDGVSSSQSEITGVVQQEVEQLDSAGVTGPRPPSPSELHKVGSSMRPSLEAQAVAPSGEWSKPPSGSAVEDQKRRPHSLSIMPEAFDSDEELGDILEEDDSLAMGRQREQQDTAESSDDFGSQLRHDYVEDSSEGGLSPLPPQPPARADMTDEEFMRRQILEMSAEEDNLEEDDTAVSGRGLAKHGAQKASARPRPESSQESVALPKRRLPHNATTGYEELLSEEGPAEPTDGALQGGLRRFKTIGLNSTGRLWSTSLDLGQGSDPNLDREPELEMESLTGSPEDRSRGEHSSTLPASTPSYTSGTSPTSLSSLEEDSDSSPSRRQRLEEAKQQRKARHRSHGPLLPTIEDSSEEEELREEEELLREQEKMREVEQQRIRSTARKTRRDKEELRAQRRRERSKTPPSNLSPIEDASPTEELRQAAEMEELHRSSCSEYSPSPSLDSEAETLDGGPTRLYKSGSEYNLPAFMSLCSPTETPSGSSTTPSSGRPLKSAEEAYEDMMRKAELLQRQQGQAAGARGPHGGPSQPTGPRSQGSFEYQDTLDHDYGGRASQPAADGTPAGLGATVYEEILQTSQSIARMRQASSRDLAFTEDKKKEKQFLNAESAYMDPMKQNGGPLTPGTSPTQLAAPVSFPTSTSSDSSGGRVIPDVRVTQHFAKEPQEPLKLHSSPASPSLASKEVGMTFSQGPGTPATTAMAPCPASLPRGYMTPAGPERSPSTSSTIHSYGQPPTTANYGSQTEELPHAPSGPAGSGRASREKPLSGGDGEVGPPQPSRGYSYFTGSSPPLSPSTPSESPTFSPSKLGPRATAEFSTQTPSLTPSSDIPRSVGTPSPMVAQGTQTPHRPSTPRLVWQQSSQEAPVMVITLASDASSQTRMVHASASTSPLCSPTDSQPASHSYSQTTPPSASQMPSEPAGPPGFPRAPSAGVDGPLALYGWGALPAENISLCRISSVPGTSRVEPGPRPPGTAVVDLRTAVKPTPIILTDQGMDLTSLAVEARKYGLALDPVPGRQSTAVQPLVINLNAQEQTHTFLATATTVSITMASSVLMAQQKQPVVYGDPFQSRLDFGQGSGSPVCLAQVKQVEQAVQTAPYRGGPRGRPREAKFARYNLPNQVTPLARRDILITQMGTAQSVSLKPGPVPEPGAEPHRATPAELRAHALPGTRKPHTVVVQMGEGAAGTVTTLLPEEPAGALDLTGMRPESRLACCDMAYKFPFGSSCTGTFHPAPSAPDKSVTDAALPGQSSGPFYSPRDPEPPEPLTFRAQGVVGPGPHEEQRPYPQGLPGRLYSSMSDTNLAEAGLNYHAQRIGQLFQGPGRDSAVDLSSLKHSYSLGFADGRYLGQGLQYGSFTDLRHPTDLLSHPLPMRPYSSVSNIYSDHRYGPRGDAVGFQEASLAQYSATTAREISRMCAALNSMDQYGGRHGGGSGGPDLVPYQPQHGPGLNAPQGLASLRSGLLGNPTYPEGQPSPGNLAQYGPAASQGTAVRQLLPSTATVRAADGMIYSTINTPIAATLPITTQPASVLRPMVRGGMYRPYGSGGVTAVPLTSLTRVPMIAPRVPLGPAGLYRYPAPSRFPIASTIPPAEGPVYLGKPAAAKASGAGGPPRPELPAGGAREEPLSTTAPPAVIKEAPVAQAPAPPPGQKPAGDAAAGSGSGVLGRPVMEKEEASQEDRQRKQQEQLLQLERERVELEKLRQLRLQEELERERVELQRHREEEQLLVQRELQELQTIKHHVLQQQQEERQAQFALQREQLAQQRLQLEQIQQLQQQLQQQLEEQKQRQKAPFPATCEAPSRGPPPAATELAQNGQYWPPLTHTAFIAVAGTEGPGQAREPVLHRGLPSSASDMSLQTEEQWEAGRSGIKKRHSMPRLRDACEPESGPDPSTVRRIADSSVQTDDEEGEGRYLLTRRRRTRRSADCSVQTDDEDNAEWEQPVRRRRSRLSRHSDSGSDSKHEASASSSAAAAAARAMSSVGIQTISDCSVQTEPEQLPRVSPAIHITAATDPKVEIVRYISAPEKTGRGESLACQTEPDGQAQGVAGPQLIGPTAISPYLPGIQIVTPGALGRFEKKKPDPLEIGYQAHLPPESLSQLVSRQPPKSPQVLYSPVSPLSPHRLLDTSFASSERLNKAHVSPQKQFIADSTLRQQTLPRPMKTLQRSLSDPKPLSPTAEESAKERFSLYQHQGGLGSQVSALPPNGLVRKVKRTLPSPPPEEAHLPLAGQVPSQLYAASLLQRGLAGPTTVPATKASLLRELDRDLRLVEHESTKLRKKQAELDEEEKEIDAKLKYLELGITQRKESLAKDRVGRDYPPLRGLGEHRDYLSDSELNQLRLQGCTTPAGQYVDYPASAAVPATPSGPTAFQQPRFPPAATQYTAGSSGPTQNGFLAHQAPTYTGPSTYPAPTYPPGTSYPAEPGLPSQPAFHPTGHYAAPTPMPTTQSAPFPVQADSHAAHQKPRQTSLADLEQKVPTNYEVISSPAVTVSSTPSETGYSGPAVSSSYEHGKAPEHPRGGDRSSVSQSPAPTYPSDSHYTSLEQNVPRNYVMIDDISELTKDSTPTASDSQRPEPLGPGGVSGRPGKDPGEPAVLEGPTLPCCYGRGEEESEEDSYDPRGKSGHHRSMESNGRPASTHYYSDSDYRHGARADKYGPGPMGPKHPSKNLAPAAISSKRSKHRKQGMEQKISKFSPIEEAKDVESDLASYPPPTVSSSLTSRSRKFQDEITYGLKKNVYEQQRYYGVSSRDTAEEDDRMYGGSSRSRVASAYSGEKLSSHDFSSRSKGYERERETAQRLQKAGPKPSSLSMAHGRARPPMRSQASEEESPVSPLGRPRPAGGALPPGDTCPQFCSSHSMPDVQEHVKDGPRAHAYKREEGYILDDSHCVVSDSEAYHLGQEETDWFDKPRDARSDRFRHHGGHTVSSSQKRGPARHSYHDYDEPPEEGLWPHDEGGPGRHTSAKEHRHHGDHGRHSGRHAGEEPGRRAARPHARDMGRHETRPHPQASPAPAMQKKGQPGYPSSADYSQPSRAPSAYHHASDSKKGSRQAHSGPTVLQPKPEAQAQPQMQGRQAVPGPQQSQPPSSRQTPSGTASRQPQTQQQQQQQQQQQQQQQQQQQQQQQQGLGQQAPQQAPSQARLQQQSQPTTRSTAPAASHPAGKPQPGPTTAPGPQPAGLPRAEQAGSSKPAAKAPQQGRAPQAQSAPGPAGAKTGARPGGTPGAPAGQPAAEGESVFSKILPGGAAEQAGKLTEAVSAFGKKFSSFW

Results are given in words; binding and its absence hold for the method and conditions named. Binding seen in cells or lysates may run through a third protein. Some entries that bind do so weakly or less than the wild type.

This test deals with T1, ELKS (rat (endogenous in INS-1E)) (UniProt Q811U3).
T1 sequence: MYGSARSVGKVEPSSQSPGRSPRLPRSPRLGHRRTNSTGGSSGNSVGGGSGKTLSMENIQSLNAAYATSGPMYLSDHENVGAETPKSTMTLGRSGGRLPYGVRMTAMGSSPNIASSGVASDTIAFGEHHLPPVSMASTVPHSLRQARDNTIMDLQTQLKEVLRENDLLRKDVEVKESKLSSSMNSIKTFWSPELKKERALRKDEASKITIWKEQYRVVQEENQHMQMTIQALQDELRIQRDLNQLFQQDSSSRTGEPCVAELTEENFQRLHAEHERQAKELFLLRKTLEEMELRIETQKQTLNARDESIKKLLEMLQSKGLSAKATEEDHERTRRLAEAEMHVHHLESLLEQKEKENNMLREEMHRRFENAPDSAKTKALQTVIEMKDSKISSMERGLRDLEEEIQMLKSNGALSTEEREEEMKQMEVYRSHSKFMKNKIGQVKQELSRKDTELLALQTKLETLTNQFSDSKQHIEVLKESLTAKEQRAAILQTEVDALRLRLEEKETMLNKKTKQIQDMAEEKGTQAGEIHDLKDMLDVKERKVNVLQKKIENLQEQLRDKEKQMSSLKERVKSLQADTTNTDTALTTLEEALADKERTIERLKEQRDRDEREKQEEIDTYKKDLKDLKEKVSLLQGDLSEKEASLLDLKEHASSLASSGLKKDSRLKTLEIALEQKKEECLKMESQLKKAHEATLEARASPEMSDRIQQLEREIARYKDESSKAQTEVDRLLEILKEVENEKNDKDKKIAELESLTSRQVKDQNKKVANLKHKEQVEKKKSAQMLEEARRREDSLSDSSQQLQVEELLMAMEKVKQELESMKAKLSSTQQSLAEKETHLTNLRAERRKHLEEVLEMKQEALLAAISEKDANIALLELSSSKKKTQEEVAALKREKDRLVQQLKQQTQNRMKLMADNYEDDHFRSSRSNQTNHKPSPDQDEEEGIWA
As to the kind of experiment: co-IP; endogenous proteins from INS-1E cell extracts (20 mM Tris-Cl pH 7.5, 150 mM NaCl, 0.5 mM EDTA, 1 mM DTT, 1% Triton X-100), anti-ELKS antibody (Proteintech) on Protein A beads, 4°C; rabbit control serum/IgG as control; western blot.

Turning to bassoon (from UniProt O88778 1-3938), the binding entry is recorded as “binds”.
